Laboratory results taken from the supplement of paper PMC10849652.
The list shows a part of the results.

The chains behind the UniProt entries cited, without tags or fusion partners. Where a name states a change or a piece, a line headed by the entry shows the natural chain unless it says otherwise.
UniProt Q9H1U9: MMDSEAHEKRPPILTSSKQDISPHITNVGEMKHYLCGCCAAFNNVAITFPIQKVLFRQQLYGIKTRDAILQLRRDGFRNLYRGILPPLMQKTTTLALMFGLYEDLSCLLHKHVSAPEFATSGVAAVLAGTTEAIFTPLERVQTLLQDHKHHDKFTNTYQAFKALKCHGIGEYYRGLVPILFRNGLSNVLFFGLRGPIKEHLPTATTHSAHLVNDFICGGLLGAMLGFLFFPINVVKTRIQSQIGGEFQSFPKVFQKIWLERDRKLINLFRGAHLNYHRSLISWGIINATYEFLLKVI
UniProt Q9Y619: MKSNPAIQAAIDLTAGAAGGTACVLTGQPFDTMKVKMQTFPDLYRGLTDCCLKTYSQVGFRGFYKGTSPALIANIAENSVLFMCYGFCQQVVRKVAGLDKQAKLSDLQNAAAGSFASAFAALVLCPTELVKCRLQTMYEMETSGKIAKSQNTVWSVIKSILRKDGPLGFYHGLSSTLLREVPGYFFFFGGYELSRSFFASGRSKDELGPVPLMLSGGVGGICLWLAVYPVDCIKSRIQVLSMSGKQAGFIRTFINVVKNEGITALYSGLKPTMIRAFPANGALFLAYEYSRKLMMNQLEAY
UniProt Q9BV35: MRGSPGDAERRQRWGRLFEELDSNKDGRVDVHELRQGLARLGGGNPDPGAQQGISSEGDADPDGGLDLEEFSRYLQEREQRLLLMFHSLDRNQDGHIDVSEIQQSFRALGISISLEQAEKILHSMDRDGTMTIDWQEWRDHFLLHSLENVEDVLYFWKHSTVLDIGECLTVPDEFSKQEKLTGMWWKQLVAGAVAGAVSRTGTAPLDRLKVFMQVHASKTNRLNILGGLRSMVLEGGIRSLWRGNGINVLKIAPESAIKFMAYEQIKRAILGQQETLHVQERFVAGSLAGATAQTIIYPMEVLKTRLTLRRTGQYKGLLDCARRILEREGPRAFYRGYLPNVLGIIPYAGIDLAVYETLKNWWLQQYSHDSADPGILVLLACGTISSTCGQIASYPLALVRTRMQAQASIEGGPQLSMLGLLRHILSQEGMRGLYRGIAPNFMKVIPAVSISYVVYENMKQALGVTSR
UniProt Q9Y6M7: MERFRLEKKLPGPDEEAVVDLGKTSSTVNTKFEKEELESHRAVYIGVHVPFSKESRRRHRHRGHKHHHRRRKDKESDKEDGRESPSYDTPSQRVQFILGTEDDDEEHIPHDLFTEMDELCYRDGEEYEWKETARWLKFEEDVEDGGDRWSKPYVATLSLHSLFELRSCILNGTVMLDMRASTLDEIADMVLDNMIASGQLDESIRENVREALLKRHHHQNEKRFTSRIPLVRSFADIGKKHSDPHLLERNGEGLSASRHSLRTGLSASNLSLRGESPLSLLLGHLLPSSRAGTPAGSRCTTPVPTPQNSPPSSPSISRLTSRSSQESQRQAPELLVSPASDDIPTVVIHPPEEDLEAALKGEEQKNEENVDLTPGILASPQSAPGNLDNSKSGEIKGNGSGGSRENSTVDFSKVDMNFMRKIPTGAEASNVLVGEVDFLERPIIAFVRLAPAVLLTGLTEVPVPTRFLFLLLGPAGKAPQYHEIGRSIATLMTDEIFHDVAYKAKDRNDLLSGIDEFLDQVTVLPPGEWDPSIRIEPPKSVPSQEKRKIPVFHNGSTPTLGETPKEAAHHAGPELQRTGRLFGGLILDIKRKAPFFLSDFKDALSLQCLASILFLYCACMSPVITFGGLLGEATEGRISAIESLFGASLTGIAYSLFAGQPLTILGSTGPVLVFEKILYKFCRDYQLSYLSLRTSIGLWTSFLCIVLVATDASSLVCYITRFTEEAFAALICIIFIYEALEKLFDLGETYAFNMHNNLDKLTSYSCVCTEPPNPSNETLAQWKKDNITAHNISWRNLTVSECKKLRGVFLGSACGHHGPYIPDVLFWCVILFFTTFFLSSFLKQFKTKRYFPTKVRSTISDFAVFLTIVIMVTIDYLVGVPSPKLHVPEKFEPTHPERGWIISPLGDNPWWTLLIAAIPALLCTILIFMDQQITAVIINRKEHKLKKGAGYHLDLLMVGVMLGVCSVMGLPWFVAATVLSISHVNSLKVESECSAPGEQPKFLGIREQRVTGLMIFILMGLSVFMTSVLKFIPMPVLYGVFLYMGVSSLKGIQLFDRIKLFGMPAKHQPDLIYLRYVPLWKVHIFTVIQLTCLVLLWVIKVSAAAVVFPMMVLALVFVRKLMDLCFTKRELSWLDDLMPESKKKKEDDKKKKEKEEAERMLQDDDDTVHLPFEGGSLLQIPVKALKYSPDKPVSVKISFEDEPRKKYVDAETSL
UniProt O14975, whole entry, looked up: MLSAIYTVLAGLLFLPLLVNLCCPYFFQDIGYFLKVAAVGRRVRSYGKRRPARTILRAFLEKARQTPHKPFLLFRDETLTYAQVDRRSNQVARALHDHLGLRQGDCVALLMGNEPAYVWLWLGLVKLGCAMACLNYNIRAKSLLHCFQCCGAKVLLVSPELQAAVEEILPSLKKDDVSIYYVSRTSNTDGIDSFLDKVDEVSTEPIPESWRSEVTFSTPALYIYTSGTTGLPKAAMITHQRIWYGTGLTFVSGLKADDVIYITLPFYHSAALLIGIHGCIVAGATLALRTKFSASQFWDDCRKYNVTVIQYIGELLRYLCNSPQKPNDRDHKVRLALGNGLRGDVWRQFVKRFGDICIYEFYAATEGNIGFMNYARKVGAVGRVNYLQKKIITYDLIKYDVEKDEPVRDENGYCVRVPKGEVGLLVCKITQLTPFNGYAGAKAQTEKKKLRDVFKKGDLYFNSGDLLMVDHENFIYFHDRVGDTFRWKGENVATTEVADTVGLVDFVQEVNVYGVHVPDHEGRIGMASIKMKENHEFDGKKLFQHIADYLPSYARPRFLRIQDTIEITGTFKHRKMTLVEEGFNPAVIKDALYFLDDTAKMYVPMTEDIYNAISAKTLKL
UniProt P02730: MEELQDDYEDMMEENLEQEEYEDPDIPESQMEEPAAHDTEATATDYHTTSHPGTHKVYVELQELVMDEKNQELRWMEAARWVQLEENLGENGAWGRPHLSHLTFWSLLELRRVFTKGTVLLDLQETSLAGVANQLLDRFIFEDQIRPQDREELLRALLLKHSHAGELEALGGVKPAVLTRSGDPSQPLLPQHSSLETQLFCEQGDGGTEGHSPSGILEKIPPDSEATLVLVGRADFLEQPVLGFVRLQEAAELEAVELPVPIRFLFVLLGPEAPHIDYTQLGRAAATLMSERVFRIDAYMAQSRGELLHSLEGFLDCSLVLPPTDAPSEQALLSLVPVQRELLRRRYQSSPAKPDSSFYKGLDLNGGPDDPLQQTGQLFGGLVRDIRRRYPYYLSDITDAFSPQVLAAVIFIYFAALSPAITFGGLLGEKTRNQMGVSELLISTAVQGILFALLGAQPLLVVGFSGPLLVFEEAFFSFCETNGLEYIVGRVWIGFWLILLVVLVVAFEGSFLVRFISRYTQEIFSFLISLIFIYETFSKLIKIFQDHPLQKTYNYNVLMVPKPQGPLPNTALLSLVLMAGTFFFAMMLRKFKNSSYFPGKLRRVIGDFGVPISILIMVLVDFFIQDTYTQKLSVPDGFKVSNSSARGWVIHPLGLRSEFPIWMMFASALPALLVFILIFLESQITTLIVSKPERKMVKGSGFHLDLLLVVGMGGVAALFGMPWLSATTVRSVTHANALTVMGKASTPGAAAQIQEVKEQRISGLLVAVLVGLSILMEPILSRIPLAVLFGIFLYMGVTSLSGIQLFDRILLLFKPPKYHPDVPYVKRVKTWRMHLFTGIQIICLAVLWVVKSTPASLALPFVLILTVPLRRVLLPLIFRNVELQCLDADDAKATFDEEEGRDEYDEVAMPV
UniProt P48029: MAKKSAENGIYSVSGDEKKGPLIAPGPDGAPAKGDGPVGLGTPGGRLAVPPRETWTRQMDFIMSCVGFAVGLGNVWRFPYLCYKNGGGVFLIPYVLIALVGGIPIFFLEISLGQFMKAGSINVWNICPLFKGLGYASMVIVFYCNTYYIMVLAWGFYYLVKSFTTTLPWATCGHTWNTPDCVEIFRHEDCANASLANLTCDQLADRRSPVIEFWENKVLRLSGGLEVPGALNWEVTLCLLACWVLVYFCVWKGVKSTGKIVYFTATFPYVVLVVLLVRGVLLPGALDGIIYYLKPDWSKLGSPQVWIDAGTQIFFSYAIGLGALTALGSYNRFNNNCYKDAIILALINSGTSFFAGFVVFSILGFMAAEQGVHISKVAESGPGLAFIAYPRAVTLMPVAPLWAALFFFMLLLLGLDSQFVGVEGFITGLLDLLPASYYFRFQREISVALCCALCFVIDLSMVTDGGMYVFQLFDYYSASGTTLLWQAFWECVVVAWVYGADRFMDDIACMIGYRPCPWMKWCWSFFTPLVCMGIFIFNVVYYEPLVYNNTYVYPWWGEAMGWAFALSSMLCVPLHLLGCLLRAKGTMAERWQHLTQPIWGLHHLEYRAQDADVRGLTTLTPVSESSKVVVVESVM
UniProt P55011: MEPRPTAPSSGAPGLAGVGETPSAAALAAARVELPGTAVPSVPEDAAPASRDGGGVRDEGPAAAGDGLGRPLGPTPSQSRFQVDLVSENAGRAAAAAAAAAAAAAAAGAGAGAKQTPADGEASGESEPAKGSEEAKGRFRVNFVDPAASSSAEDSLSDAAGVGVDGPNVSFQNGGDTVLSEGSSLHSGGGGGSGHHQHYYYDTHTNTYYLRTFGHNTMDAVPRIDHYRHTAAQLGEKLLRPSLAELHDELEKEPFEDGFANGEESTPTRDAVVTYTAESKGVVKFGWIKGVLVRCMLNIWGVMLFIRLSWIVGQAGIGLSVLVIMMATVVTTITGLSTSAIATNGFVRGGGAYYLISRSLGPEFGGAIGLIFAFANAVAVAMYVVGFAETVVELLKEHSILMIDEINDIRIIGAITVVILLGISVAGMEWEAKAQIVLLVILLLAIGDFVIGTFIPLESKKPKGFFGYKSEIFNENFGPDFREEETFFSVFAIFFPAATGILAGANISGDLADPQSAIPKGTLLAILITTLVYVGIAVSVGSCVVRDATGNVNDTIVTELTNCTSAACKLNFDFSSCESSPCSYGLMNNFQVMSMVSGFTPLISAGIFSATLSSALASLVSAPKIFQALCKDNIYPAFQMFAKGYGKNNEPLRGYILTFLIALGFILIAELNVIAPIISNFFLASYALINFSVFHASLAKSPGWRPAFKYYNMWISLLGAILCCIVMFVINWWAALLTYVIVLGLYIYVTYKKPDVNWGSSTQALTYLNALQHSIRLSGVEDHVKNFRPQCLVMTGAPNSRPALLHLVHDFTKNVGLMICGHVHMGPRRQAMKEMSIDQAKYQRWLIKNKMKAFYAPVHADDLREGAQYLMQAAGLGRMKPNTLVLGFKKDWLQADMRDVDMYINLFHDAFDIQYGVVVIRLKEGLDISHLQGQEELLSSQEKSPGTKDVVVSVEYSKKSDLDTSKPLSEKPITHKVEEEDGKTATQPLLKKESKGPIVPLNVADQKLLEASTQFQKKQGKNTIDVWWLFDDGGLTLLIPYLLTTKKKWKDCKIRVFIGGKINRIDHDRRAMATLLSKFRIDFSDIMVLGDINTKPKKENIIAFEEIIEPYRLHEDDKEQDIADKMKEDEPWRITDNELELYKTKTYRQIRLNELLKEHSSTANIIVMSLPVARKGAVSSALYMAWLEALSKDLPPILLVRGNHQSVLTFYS
UniProt P43007: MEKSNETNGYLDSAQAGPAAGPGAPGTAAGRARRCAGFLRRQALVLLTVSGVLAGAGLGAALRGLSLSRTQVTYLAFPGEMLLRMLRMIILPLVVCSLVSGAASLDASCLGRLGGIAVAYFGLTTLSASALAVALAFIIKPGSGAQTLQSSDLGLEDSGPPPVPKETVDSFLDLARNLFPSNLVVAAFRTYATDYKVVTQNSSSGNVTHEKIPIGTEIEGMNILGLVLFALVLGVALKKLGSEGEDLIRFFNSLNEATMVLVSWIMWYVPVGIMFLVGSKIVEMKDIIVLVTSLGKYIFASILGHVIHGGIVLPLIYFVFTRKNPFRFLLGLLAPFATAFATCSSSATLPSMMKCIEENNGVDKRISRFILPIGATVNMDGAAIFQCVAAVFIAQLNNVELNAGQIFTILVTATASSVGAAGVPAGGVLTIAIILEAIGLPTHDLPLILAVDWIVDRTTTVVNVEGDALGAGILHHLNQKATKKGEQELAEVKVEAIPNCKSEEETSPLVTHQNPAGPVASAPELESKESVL
UniProt P53007, whole entry, looked up: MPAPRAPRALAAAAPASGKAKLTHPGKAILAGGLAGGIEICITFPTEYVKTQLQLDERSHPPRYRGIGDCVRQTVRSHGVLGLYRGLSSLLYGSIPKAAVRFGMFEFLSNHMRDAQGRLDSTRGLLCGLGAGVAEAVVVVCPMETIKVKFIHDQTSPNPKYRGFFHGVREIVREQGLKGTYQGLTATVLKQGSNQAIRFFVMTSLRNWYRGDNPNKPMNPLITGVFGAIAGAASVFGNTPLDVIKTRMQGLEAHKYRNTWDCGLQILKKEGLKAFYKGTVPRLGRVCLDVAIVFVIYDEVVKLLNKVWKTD

Tests used:
Assay in all cases: log2 fold change, soluble protein after heating vs DMSO (PISA); higher = thermal stabilisation; K562 cells, 10 uM, 30 min; active = over 0.2 and 3.5 SD of the protein, either way, in both replicates (recomputed)
[1] = compound: C1=CC=C(C=C1)[C@H](COC2=CC3=C(C=C2)NC(=O)N3)NC(=O)C4=CC=CN(C4=O)CC5=CC(=C(C=C5)F)F
Outline: (§1)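 K562 cells at 2×10^6 cells/mL were exposed to 10 μM compound for 30 min, then aliquots were heated for 3 min across 48°C-58°C, pooled, and extracted in PBS containing 0.5% NP-40 at 4°C. The supernatant after 21,000xg for 90 min was taken as soluble protein and measured by TMTpro 16plex LC-MS/MS with channel sums equalised. Thermal stability is reported relative to control samples, with values from duplicates. Fold changes are given on a log2 scale.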

[2] = compound: CC1=C(SC2=C1C(=N[C@H](C3=NN=C(N32)C)CC(=O)N)C4=CC=C(C=C4)Cl)C
Outline: as §1

[3] = compound: CC1=C2C(=CC=C1)N=C(N(C2=O)C3=CC=CC=C3C)CN4C=NC5=C(N=CN=C54)N
Outline: as §1

[4] = compound: Cc1sc2c(c1C)C(c1ccc(Cl)cc1)=N[C@@H](CC(=O)OC(C)(C)C)c1nnc(C)n1-2
Outline: as §1

[5] = compound: c1ccc([C@@H]2C[C@H]2NC2CCNCC2)cc1
Outline: as §1

Measured: log2 fold change

SLC43A3 isoform 2 (UniProt Q8NBI5)
inactive: [1] 0.003 | [2] 0.043 | [3] -0.037 | [4] -0.029 | [5] 0.057

SLC35C1 (UniProt Q96A29)
inactive: [1] -0.085 | [2] 0.053 | [3] -0.041 | [4] -0.037 | [5] 0.067

SLC2A1 (UniProt P11166)
inactive: [1] 0.003 | [2] 0.031 | [3] 0.001 | [4] 0.012 | [5] 0.014

SLC7A1 (UniProt P30825)
inactive: [1] 0.013 | [2] 0.006 | [3] -0.018 | [4] 0.007 | [5] 0.082

SLC27A4 (UniProt Q6P1M0)
inactive: [1] -0.018 | [2] 0.095 | [3] 0.037 | [4] -0.027 | [5] -0.019

SLC33A1 (UniProt O00400)
inactive: [1] 0.036 | [2] 0.021 | [3] -0.012 | [4] -0.001 | [5] 0.007

SLC25A26 (UniProt Q70HW3)
inactive: [1] -0.041 | [2] 0 | [3] 0.049 | [4] 0.05 | [5] 0.042

SLC25A6 (UniProt P12236)
inactive: [1] 0.026 | [2] 0.011 | [3] 0.052 | [4] -0.032 | [5] 0.015

SLC6A6 (UniProt P31641)
inactive: [1] -0.002 | [2] 0.065 | [3] 0.039 | [4] 0.018 | [5] 0.035

SLC25A22 (UniProt Q9H936)
inactive: [1] 0.024 | [2] -0.006 | [3] 0.05 | [4] 0.045 | [5] 0.022

SLC25A12 (UniProt O75746)
inactive: [1] 0.021 | [2] 0.015 | [3] 0.022 | [4] 0.003 | [5] 0.045

SLC25A51 (UniProt Q9H1U9)
inactive: [1] 0.036 | [2] 0.014 | [3] -0.002 | [4] -0.014 | [5] -0.045

SLC5A3 (UniProt P53794)
inactive: [1] 0.014 | [2] 0.021 | [3] 0.019 | [4] 0.013 | [5] -0.033

SLC39A3 (UniProt Q9BRY0)
inactive: [1] 0.01 | [2] -0.02 | [3] -0.009 | [4] -0.011 | [5] -0.019

Three entries drawn at random from those above:
SLC6A6 (UniProt P31641)
inactive: [1] -0.002 | [2] 0.065 | [3] 0.039 | [4] 0.018 | [5] 0.035

SLC25A6 (UniProt P12236)
inactive: [1] 0.026 | [2] 0.011 | [3] 0.052 | [4] -0.032 | [5] 0.015

SLC5A3 (UniProt P53794)
inactive: [1] 0.014 | [2] 0.021 | [3] 0.019 | [4] 0.013 | [5] -0.033

Carrying on.

SLC25A15 (UniProt Q9Y619)
inactive: [1] 0.009 | [2] 0.025 | [3] 0.018 | [4] -0.01 | [5] 0.016

SLC25A23 isoform 3 (UniProt Q9BV35)
inactive: [1] 0.214 | [2] -0.02 | [3] -0.05 | [4] 0.002 | [5] 0.024

SLC29A1 isoform 2 (UniProt Q99808)
inactive: [1] 0.017 | [2] 0.03 | [3] 0.008 | [4] -0.005 | [5] 0.055

SLC25A31 (UniProt Q9H0C2)
inactive: [1] 0.037 | [2] 0.015 | [3] -0.006 | [4] -0.012 | [5] -0.009

SLC4A7 isoform 7 (UniProt Q9Y6M7)
inactive: [1] 0.046 | [2] 0.005 | [3] -0.003 | [4] 0.011 | [5] -0.052

SLC27A2 (UniProt O14975)
inactive: [1] 0.038 | [2] 0.036 | [3] 0.141 | [4] 0.011 | [5] -0.027

SLC38A2 (UniProt Q96QD8)
inactive: [1] -0.006 | [2] 0.044 | [3] 0.024 | [4] -0.028 | [5] 0.035

SLC4A2 (UniProt P04920)
inactive: [1] -0.042 | [2] 0.016 | [3] 0.019 | [4] -0.038 | [5] 0.088

SLC35B2 (UniProt Q8TB61)
inactive: [1] 0.017 | [2] 0.024 | [3] 0.024 | [4] -0.033 | [5] 0.01

SLC25A33 (UniProt Q9BSK2)
inactive: [1] 0.02 | [2] 0.015 | [3] 0.072 | [4] -0.022 | [5] -0.008

SLC4A1 (UniProt P02730)
inactive: [1] 0.067 | [2] -0.014 | [3] 0.184 | [4] 0.028 | [5] 0.093

SLC39A7 (UniProt Q92504)
inactive: [1] 0.028 | [2] -0.064 | [3] 0.047 | [4] 0.031 | [5] 0.003

SLC10A4 (UniProt Q96EP9)
inactive: [1] -0.056 | [2] -0.019 | [3] 0.217 | [4] 0.081 | [5] -0.06

SLC25A39 (UniProt Q9BZJ4)
inactive: [1] 0.031 | [2] -0.166 | [3] 0.149 | [4] 0.09 | [5] 0.019

SLC6A8 (UniProt P48029)
inactive: [1] -0.055 | [2] 0.039 | [3] 0.025 | [4] -0.274 | [5] 0.102

SLC12A2 (UniProt P55011)
inactive: [1] 0.004 | [2] 0.038 | [3] 0.034 | [4] -0.003 | [5] -0.022

SLC1A4 (UniProt P43007)
inactive: [1] 0.006 | [2] 0.022 | [3] 0.078 | [4] -0.015 | [5] 0.003

SLC40A1 (UniProt Q9NP59)
inactive: [1] -0.11 | [2] 0.109 | [3] -0.049 | [4] 0.018 | [5] 0.02

SLC3A2 (UniProt F5GZS6)
inactive: [1] 0 | [3] -0.122 | [4] 0.011

SLC25A3 isoform 2 (UniProt Q00325)
inactive: [1] 0.025 | [2] 0.01 | [3] -0.009 | [4] -0.008 | [5] -0.024

SLC25A1 (UniProt P53007)
inactive: [1] 0.031 | [2] -0.006 | [3] -0.037 | [4] 0.007 | [5] 0.025

SLC22A4 (UniProt Q9H015)
inactive: [2] 0.04 | [3] 0.052 | [4] -0.006 | [5] -0.057

SLC19A2 (UniProt O60779)
inactive: [2] 0.057 | [3] 0.134 | [4] -0.093 | [5] 0.042

SLC23A2 (UniProt Q9UGH3)
inactive: [1] 0.324 | [4] -0.126
